PubChem BioAssay AID1259331, Drosophila RNAi Screening Center, 2017
Aim: 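Genes whose knock-down changes cell survival under toxic zinc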 (primary screen). Cells: Drosophila S2R+ cells. Reagents: long dsRNA against Drosophila genes. Time to read-out: 5 days (4 days knock-down, then 1 day zinc). Challenge: zinc chloride at 15 mM final level for 1 day. Measured: 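Total cellular ATP measured by luciferase luminescence as a viability proxy, turned into Z scores from three plate copies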. Scale: mean Z score: higher = more ATP than other wells, better survival under zinc; ATP luminescence: higher = more ATP, more viable cells. Hit rule: 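Hit when the absolute Z score is greater than 1.5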. Calls: active = hit, ATP up or down; inactive = not a hit.
In all, the deposit lists about 3,100 reagents; below is a random part of them. 126 of all reagents (4.1%) count as active. 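Calls are per reagent; zinc was so toxic that few knock-downs lowered ATP further, so most hits raise ATP.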 The raw values are shown without normalisation. Entries without a mark were called inactive. Reagent sequences are not shown. The record does not give: the amount of reagent.

The opening 3 entries, to show the layout:
mean Z score | ATP luminescence, replicate 1 | ATP luminescence, replicate 2 | predicted target | PubChem SID
0.0608 | 51252 | 63271 | drl | SID104183315
-0.256 | 57919 | 56962 | drl | SID104207108
0.584 | 53312 | 57442 | drl | SID104214602

Results, from the start:
mean Z score | ATP luminescence, replicate 1 | ATP luminescence, replicate 2 | predicted target | PubChem SID
0.0608 | 51252 | 63271 | drl | SID104183315
-0.256 | 57919 | 56962 | drl | SID104207108
0.584 | 53312 | 57442 | drl | SID104214602
0.505 | 78074 | 70682 | CG32645 | SID104199475
0.319 | 68384 | 74358 | CG32645 | SID104199681
0.132 | 64422 | 72791 | Gr57a | SID104186193
1.06 | 45119 | 40125 | CG32053 | SID104190475
0.902 | 84078 | 77885 | CG12121 | SID104197608
0.52 | 74884 | 63239 | CG12121 | SID104217298
-0.322 | 54064 | 58849 | CG12376 | SID104208008
-0.0443 | 51064 | 50875 | CG12376 | SID104217095
0.00481 | 33713 | 58540 | Osi22 | SID104196234
-0.36 | 52127 | 55642 | Osi22 | SID104205720
4.23 (active) | 99311 | 91214 | CG15923 | SID104194921
-0.161 | 30660 | 30627 | Nup62 | SID104186762
-0.0515 | 46520 | 42936 | CG33310 | SID104181689
-0.0868 | 49418 | 70888 | CG33310 | SID104203476
-0.299 | 25296 | 29707 | Ret | SID104183201
0.815 | 60238 | 51338 | Ret | SID104183202
0.966 | 61369 | 53533 | Ret | SID104214595
-0.0237 | 72551 | 61198 | Lkr | SID104189546
0.556 | 61575 | 54230 | Lkr | SID104217071
0.202 | 51184 | 47086 | CG31454 | SID104202160
-0.656 | 52332 | 50211 | CG31454 | SID104203162
-1.24 | 66480 | 50721 | Ir48c | SID104185946
-0.526 | 42937 | 44308 | Ir48c | SID104217009
-0.486 | 39508 | 43214 | CG1208 | SID104191982
-0.344 | 47257 | 42731 | CG1208 | SID104217042
